From PMC12606344
Results are given in words; binding and its absence hold for the method and conditions named. For part of these data: Binding seen in cells or lysates may run through a third protein. Some results given as binding are weak or reduced against the parent protein; the word gives no strength.

The chains behind the UniProt entries cited, without tags or fusion partners.
UniProt Q92466: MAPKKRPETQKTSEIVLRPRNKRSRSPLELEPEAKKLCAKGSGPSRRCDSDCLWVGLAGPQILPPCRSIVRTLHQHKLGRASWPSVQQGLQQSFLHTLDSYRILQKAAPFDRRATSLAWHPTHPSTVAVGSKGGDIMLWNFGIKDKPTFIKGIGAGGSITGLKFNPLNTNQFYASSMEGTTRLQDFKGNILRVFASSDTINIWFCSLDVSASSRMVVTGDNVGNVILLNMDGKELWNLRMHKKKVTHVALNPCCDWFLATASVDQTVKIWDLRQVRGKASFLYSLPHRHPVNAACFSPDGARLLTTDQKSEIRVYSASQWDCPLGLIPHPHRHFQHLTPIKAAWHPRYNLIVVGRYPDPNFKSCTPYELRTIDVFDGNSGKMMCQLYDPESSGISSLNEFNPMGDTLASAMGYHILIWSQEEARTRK
UniProt Q16531: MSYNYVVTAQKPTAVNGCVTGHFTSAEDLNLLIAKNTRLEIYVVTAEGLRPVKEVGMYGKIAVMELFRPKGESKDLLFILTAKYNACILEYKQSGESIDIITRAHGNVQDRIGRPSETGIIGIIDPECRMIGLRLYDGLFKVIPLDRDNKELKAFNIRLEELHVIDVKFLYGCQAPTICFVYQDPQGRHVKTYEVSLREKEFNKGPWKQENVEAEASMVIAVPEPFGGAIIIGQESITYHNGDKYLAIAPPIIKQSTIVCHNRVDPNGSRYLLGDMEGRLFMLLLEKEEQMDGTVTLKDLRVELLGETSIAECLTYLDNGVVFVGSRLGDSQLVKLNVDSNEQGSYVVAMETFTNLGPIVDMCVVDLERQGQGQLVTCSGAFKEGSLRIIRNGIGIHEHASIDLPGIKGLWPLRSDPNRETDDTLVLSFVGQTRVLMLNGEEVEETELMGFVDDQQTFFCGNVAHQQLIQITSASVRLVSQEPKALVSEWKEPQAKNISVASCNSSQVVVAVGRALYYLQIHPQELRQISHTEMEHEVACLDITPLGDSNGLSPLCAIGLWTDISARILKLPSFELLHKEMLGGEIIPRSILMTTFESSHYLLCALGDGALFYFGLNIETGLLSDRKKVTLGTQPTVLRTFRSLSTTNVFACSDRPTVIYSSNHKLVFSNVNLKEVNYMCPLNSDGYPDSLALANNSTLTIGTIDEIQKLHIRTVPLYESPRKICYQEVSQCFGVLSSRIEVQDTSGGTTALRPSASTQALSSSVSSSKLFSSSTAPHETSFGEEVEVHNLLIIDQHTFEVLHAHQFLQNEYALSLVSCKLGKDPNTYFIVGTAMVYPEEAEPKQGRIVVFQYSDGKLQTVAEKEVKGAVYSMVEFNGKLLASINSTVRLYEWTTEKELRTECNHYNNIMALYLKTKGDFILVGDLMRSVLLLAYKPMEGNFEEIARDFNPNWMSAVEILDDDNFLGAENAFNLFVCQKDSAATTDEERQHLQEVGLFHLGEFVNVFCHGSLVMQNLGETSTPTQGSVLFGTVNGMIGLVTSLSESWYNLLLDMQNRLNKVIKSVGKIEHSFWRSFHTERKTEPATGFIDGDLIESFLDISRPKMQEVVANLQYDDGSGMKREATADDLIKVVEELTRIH

Legend:
[1] = target: strep-tagged DDB2 (recombinant) (human) (UniProt Q92466); assay: cryo-EM structure; recombinant UV-DDB (DDB1 and DDB2 co-expressed and purified as a complex) mixed with reconstituted NCP^CPD at 1:2 molar ratio in 50 mM HEPES pH 7.4, 50 mM NaCl, 250 uM TCEP, 30 min on ice; 3.4 A; both purified
[2] = target: FLAG-tagged DDB2 (U2OS/DDB2 KO/FLAG-DDB2 cells) (human) (UniProt Q92466); assay: co-IP; anti-FLAG M2 agarose on the MNase-digested chromatin (insoluble) fraction of UV-C irradiated (20 J/m^2) U2OS/FLAG-DDB2 cells, fixed with 0.75% formaldehyde; eluted with FLAG peptide; SDS-PAGE, Oriole stain; also repeated with cells kept 8 h in 20 uM ATPgammaS before UV
[3] = target: FLAG-tagged DDB2 (U2OS/DDB2 KO/FLAG-DDB2 cells) (human) (UniProt Q92466); assay: cryo-EM structure; ChIP-CryoEM: immunopurified, formaldehyde cross-linked cellular UV-DDB-nucleosome complex from UV-irradiated U2OS/FLAG-DDB2 cells; graphene-coated grids; 12 A

Row | Substance | binding [1] | binding [2] | binding [3]
1 | strep-tagged DDB1 (recombinant) (from UniProt Q16531 1-1140) | binds |  | 
2 | DDB1 (endogenous, U2OS) (from UniProt Q16531 1-1140) |  | binds | binds
